From the supplement of paper PMC10849652
Some of the results follow.

Amino acid sequences for entries named in this document (tags omitted). A change or cut given only in a name is not applied to a line headed by its entry.
UniProt Q9BW27: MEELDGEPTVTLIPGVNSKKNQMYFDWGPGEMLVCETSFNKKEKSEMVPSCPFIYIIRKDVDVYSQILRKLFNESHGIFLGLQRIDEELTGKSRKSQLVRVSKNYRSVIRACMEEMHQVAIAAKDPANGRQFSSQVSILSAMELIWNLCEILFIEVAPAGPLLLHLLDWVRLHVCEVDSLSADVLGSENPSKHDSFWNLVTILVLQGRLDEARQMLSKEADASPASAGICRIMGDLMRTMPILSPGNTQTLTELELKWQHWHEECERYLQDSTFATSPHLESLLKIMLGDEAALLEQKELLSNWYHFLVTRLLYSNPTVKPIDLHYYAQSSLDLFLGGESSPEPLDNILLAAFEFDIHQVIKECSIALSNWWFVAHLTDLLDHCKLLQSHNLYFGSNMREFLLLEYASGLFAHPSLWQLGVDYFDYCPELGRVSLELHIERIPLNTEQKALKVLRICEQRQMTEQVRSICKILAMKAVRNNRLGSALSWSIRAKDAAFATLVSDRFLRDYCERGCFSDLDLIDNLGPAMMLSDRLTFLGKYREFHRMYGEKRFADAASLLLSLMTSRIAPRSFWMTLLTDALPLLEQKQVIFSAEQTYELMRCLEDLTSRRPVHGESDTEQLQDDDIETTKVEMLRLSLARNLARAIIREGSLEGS
UniProt Q08J23, whole entry, looked up: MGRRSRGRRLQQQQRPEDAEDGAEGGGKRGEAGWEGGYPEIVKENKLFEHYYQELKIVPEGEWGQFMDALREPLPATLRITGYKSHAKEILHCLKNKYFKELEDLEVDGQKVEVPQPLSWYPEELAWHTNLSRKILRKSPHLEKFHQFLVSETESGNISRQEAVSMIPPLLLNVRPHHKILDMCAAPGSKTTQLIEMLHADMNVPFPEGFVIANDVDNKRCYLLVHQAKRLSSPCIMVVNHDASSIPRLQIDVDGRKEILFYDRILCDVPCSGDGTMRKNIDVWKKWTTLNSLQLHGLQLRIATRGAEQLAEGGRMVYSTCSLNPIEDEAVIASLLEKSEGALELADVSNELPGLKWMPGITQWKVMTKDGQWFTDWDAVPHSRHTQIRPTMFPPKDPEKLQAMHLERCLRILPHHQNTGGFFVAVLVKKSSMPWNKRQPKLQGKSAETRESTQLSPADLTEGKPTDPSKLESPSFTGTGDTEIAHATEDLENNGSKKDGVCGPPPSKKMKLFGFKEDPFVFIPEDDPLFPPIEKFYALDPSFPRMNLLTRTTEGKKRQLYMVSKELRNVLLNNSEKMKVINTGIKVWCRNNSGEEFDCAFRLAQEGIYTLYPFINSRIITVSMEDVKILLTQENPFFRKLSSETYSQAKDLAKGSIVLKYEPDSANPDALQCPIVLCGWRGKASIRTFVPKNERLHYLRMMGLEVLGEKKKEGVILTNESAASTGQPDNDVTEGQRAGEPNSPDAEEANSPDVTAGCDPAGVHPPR
UniProt Q8NFH3: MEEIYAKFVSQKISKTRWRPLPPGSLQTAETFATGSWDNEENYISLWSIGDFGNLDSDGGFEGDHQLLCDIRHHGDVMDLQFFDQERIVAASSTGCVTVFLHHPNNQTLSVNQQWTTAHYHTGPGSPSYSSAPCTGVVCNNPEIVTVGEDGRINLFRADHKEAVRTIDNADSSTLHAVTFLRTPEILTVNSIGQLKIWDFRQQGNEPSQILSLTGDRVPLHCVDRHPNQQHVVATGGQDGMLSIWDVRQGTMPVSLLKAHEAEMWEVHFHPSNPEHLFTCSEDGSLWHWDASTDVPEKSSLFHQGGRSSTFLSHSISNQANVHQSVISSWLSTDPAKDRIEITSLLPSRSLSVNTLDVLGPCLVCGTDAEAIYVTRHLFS
UniProt Q8TB37: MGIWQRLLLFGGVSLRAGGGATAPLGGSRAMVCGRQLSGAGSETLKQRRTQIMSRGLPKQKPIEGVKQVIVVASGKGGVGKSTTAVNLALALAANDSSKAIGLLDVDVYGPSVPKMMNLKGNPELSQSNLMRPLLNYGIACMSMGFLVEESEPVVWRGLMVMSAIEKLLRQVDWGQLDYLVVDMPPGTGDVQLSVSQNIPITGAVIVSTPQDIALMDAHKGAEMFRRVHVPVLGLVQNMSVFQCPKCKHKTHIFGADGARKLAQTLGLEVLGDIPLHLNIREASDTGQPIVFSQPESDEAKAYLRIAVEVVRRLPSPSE
UniProt Q9Y5Y2: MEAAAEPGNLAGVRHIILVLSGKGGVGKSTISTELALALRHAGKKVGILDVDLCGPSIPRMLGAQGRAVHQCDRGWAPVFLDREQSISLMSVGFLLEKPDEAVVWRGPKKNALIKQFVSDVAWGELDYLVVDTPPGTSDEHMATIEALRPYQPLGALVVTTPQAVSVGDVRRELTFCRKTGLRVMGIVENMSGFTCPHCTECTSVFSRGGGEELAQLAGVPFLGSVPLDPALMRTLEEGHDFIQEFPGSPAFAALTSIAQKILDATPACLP
UniProt P00480: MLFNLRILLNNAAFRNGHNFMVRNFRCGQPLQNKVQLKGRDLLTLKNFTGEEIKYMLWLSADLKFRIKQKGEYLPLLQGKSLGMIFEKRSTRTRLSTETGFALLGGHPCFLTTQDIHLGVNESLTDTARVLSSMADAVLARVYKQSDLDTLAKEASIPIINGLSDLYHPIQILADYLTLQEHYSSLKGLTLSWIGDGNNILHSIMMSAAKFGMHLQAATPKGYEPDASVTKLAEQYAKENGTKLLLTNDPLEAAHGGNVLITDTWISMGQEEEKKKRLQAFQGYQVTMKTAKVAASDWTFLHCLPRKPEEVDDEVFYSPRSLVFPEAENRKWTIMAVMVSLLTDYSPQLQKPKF
UniProt Q92621: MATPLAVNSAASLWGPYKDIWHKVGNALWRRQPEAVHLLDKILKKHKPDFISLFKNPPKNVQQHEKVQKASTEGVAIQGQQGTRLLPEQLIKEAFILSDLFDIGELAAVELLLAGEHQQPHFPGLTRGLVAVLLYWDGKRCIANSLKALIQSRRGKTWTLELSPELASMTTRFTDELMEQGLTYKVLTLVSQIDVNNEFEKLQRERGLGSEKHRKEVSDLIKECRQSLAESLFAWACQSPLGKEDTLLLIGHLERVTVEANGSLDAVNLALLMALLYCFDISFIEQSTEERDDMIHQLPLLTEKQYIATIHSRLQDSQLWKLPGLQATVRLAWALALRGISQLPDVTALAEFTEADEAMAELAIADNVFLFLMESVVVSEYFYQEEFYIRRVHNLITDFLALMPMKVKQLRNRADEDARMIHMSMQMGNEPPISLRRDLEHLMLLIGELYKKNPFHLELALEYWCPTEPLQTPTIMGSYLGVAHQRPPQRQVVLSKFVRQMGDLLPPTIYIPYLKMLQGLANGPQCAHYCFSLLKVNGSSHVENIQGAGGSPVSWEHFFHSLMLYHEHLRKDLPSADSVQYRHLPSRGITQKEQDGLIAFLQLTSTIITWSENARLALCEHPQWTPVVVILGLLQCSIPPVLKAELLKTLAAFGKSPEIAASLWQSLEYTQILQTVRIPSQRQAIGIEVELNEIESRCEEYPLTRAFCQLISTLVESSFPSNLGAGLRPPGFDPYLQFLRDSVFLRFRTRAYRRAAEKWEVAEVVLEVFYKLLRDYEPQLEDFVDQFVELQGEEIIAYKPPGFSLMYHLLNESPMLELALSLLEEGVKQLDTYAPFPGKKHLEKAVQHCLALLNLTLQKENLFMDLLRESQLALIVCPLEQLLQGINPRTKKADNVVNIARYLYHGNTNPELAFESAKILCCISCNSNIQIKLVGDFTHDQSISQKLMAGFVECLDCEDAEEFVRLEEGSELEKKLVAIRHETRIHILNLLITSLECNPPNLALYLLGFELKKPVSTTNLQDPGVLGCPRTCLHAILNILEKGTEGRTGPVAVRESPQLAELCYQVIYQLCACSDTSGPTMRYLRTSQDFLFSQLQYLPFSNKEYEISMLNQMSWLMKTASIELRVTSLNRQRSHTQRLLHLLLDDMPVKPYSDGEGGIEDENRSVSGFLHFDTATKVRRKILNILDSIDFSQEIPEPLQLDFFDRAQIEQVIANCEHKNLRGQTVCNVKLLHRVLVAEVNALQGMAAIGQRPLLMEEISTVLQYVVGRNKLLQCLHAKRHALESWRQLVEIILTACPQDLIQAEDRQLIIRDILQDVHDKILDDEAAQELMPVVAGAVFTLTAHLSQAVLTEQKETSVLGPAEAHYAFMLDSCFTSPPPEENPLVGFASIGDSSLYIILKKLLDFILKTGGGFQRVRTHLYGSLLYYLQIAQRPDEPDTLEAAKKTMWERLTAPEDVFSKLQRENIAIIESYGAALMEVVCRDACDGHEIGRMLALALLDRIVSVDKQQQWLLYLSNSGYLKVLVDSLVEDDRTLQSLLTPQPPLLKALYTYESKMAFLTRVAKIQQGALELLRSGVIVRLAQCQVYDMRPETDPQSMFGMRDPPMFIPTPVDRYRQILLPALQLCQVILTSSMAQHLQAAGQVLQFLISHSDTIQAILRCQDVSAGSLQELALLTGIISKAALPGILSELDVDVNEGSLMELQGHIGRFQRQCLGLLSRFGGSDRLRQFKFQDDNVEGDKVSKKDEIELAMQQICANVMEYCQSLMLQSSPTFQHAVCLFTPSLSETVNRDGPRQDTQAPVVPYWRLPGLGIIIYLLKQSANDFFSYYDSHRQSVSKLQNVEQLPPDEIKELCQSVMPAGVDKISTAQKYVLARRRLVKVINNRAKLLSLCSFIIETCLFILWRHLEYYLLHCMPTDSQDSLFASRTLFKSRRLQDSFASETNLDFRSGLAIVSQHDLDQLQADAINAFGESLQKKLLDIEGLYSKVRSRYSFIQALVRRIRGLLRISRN
UniProt Q8TCD5: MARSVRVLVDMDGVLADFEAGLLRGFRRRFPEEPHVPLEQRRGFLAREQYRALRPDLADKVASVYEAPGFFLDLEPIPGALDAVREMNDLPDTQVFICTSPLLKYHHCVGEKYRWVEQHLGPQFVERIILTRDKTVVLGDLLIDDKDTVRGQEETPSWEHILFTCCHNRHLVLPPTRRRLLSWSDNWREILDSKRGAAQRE
UniProt P11940, whole entry, looked up: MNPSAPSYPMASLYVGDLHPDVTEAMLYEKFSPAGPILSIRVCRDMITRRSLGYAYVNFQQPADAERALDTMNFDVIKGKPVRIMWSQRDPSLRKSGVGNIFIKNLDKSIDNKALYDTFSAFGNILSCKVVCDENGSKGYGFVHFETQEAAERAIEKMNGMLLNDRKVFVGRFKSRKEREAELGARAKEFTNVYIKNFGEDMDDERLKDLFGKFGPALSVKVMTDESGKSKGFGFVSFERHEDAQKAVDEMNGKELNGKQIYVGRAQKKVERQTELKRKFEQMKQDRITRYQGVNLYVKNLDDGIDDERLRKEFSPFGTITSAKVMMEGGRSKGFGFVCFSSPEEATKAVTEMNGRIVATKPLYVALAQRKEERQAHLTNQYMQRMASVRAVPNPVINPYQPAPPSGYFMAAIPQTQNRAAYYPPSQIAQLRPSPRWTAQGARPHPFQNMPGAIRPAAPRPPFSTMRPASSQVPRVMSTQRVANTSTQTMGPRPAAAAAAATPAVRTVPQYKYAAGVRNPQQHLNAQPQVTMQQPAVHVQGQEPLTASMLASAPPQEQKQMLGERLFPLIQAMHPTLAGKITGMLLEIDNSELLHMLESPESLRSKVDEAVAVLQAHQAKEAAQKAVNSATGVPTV
UniProt Q02818: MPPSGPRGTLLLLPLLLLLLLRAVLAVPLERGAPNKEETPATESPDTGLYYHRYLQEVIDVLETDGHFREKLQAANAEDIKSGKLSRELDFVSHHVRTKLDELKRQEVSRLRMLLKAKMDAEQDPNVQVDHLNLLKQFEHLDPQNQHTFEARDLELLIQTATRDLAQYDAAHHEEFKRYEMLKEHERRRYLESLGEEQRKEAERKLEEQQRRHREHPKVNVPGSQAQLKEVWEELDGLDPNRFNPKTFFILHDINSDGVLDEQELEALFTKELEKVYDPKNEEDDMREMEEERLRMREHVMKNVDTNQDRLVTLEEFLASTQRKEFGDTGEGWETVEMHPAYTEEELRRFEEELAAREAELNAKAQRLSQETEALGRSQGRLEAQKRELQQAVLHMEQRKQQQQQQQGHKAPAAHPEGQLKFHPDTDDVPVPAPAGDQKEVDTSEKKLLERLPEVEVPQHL
UniProt Q7Z3B4: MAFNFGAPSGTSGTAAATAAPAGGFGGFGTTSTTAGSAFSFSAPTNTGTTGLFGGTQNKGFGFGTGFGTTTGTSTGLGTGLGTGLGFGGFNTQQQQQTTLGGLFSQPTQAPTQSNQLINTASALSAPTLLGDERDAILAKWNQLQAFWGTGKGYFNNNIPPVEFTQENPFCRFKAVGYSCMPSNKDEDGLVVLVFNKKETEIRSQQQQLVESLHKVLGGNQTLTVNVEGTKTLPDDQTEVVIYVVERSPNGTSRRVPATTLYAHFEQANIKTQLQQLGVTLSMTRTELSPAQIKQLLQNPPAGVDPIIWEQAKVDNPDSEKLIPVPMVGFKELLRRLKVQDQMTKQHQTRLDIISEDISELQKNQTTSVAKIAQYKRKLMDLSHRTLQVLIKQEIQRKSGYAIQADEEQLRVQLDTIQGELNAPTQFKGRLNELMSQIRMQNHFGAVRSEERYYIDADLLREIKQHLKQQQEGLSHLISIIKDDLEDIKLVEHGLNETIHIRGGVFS

Key:
Experiment in all cases: log2 fold change, soluble protein after heating vs DMSO (PISA); higher = thermal stabilisation; K562 cells, 10 uM, 30 min; active = over 0.2 and 3.5 SD of the protein, either way, in both replicates (recomputed)
[1] = compound: C1=CC=C(C=C1)[C@H](COC2=CC3=C(C=C2)NC(=O)N3)NC(=O)C4=CC=CN(C4=O)CC5=CC(=C(C=C5)F)F
Procedure, shortened: (§1)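 Soluble protein was quantified by TMTpro 16plex LC-MS/MS after channel sums were equalised. It was obtained as the supernatant after 21,000xg for 90 min from pooled aliquots of K562 cells (2×10^6 cells/mL, 10 μM compound, 30 min) heated for 3 min across 48°C-58°C and extracted in PBS with 0.5% NP-40 at 4°C. Thermal stability values are relative to control samples and come from duplicates. They are given as log2 fold changes.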

[2] = compound: CC1=C(SC2=C1C(=N[C@H](C3=NN=C(N32)C)CC(=O)N)C4=CC=C(C=C4)Cl)C
Procedure, shortened: as §1

[3] = compound: CC1=C2C(=CC=C1)N=C(N(C2=O)C3=CC=CC=C3C)CN4C=NC5=C(N=CN=C54)N
Procedure, shortened: as §1

[4] = compound: Cc1sc2c(c1C)C(c1ccc(Cl)cc1)=N[C@@H](CC(=O)OC(C)(C)C)c1nnc(C)n1-2
Procedure, shortened: as §1

[5] = compound: c1ccc([C@@H]2C[C@H]2NC2CCNCC2)cc1
Procedure, shortened: as §1

Measured: log2 fold change

P3H1 (UniProt Q32P28)
inactive: [1] 0.065 | [2] -0.017 | [3] 0.028 | [4] -0.019 | [5] -0.031

OTUD5 isoform 5 (UniProt Q96G74)
inactive: [1] 0.043 | [2] 0.069 | [3] -0.033 | [4] 0.067 | [5] -0.001

OVCA2 (UniProt Q8WZ82)
inactive: [1] -0.152

NUP85 (UniProt Q9BW27)
inactive: [1] -0.009 | [2] -0.018 | [3] 0.042 | [4] -0.004 | [5] 0.019

OAT (UniProt P04181)
inactive: [1] -0.019 | [2] 0.083 | [3] 0.05 | [4] -0.024 | [5] -0.045

NUDT12 (UniProt Q9BQG2)
inactive: [1] -0.015 | [2] -0.012 | [3] 0.109 | [4] -0.019 | [5] -0.015

NUDT16 (UniProt Q96DE0)
inactive: [1] 0.029 | [2] 0.085 | [3] -0.045 | [4] -0.075 | [5] -0.006

OSTF1 (UniProt Q92882)
inactive: [1] -0.03 | [2] 0.058 | [3] 0.056 | [4] -0.09 | [5] -0.018

NUBP1 (UniProt P53384)
inactive: [1] -0.053 | [2] 0.08 | [3] 0.078 | [4] -0.021 | [5] -0.055

P4HA1 (UniProt P13674)
inactive: [1] 0.037 | [2] -0.093 | [3] -0.037 | [4] -0.018 | [5] 0.019

NSUN2 (UniProt Q08J23)
inactive: [1] -0.019 | [2] 0.023 | [3] 0.003 | [4] 0 | [5] 0.003

PA2G4 (UniProt Q9UQ80)
inactive: [1] -0.049 | [2] 0.006 | [3] 0.013 | [4] 0.019 | [5] -0.076

NUDCD2 (UniProt Q8WVJ2)
inactive: [1] -0.037 | [2] 0.113 | [3] 0.099 | [4] 0.017 | [5] 0.037

OGFR (UniProt Q9NZT2)
inactive: [1] -0.016 | [2] -0.057 | [3] 0.016 | [4] 0.095 | [5] -0.046

NUP43 (UniProt Q8NFH3)
inactive: [1] 0.033 | [2] -0.012 | [3] 0.011 | [4] -0.032 | [5] -0.003

NUBPL (UniProt Q8TB37)
inactive: [1] -0.027 | [2] -0.061 | [3] 0.006 | [4] -0.038 | [5] 0.01

NUP88 (UniProt Q99567)
inactive: [1] -0.069 | [2] -0.069 | [3] -0.003 | [4] -0.004 | [5] -0.03

OXSM (UniProt Q9NWU1)
inactive: [1] 0.072 | [2] -0.007 | [3] 0.045 | [4] -0.007 | [5] 0.036

NVL (UniProt O15381)
inactive: [1] -0.039

OGA (UniProt O60502)
inactive: [1] -0.032 | [2] 0.019 | [3] 0.047 | [4] -0.034 | [5] -0.065

OGDH (UniProt Q02218)
inactive: [1] -0.033 | [2] -0.005 | [3] -0.029 | [4] -0.027 | [5] -0.026

NUP50 (UniProt Q9UKX7)
inactive: [1] 0.027 | [2] 0.035 | [3] -0.038 | [4] 0.044 | [5] 0.002

OXSR1 (UniProt O95747)
inactive: [1] -0.039 | [2] 0.048 | [3] 0.096 | [4] -0.003 | [5] -0.03

NUBP2 (UniProt Q9Y5Y2)
inactive: [1] -0.011 | [2] 0.063 | [3] 0.03 | [4] 0.004 | [5] -0.049

PAAF1 (UniProt Q9BRP4)
inactive: [1] -0.012 | [2] 0.043 | [3] 0.076 | [4] -0.014 | [5] 0.008

OGFOD3 (UniProt Q6PK18)
inactive: [1] 0.185

ORC5 (UniProt O43913)
inactive: [1] -0.081 | [2] 0.02 | [3] 0.144 | [4] -0.016 | [5] -0.044

NTPCR (UniProt Q9BSD7)
inactive: [1] -0.059 | [2] 0.042 | [3] 0.034 | [4] 0.002 | [5] -0.054

OTC (UniProt P00480)
inactive: [1] -0.06 | [2] 0.09 | [3] 0.24 | [4] 0.126 | [5] 0.069

NUDT19 (UniProt A8MXV4)
inactive: [1] 0.017 | [2] 0.005 | [3] 0.102 | [4] -0.017 | [5] -0.026

OTUD7B (UniProt Q6GQQ9)
inactive: [1] -0.332 | [2] 0.095 | [3] 0.165 | [4] -0.099 | [5] -0.049

NUDCD3 (UniProt Q8IVD9)
inactive: [1] -0.037 | [2] 0.033 | [3] 0.083 | [4] -0.018 | [5] -0.019

NUP205 (UniProt Q92621)
inactive: [1] -0.004 | [2] 0.035 | [3] 0.08 | [4] -0.043 | [5] 0.008

OXR1 (UniProt Q8N573)
inactive: [1] -0.021 | [2] 0.026 | [3] 0.039 | [4] -0.041 | [5] -0.069

NUP188 (UniProt Q5SRE5)
inactive: [1] -0.016 | [2] 0.011 | [3] 0.061 | [4] -0.018 | [5] -0.018

OAS3 (UniProt Q9Y6K5)
inactive: [1] -0.202

OTUD4 (UniProt Q01804)
inactive: [1] 0.033 | [2] -0.034 | [3] -0.05 | [4] 0.111 | [5] 0.011

ORC3 isoform 2 (UniProt Q9UBD5)
inactive: [1] -0.098 | [2] 0.032 | [3] 0.107 | [4] 0.013 | [5] -0.079

OTUD6B (UniProt Q8N6M0)
inactive: [1] -0.051 | [2] 0.022 | [3] 0.11 | [4] 0.03 | [5] -0.153

OSTM1 (UniProt Q86WC4)
inactive: [1] 0.023 | [2] 0.036 | [3] 0.058 | [4] -0.091 | [5] -0.013

OGFOD2 (UniProt Q6N063)
inactive: [1] 0.124 | [2] 0.097 | [3] 0.024 | [4] 0.091 | [5] 0.053

OSBPL9 (UniProt Q96SU4)
inactive: [1] -0.067 | [2] -0.043 | [3] -0.042 | [4] 0.107 | [5] 0.007

NSMCE4A (UniProt Q9NXX6)
inactive: [1] 0.123 | [2] 0.03 | [3] -0.088 | [4] -0.037 | [5] -0.014

Looked up one by one from above, four records:
NSMCE4A (UniProt Q9NXX6)
inactive: [1] 0.123 | [2] 0.03 | [3] -0.088 | [4] -0.037 | [5] -0.014

ORC3 isoform 2 (UniProt Q9UBD5)
inactive: [1] -0.098 | [2] 0.032 | [3] 0.107 | [4] 0.013 | [5] -0.079

OSBPL9 (UniProt Q96SU4)
inactive: [1] -0.067 | [2] -0.043 | [3] -0.042 | [4] 0.107 | [5] 0.007

OSTM1 (UniProt Q86WC4)
inactive: [1] 0.023 | [2] 0.036 | [3] 0.058 | [4] -0.091 | [5] -0.013

Continued.

NUDT5 (UniProt Q9UKK9)
inactive: [1] 0.018 | [2] 0.008 | [3] -0.065 | [4] 0.011 | [5] 0.043

NT5C (UniProt Q8TCD5)
inactive: [1] 0.021 | [2] 0.02 | [3] 0.017 | [4] -0.012 | [5] 0.017

OXA1L (UniProt Q15070)
inactive: [1] 0.014 | [2] -0.01 | [3] 0.018 | [4] 0 | [5] 0.009

PABPC1 (UniProt P11940)
inactive: [1] 0.069 | [2] -0.06 | [3] -0.048 | [4] 0.142 | [5] 0.025

NUCB1 (UniProt Q02818)
inactive: [1] 0 | [2] 0.031 | [3] -0.009 | [4] 0.014 | [5] 0.057

OSGEP (UniProt Q9NPF4)
inactive: [1] -0.013 | [2] -0.002 | [3] 0.045 | [4] 0.008 | [5] 0.003

NUDT21 (UniProt O43809)
inactive: [1] 0.013 | [2] 0.021 | [3] 0.011 | [4] -0.01 | [5] 0.001

OXNAD1 (UniProt Q96HP4)
inactive: [1] 0.092 | [2] -0.031 | [3] 0.006 | [4] 0.002 | [5] -0.066

NUDT3 (UniProt O95989)
inactive: [1] 0.009 | [2] 0.039 | [3] 0.037 | [4] 0.039 | [5] 0.062

NUP54 (UniProt Q7Z3B4)
inactive: [1] -0.135 | [2] 0.035 | [3] 0.031 | [4] -0.027 | [5] -0.028

OGFOD3 isoform 2 (UniProt Q6PK18)
inactive: [1] 0.081 | [2] -0.043 | [3] -0.011 | [4] -0.002 | [5] -0.071

NUP153 (UniProt P49790)
inactive: [1] 0.025 | [2] 0.02 | [3] -0.035 | [4] 0.046 | [5] 0.048

NUP93 (UniProt Q8N1F7)
inactive: [1] -0.076 | [2] 0.001 | [3] 0.053 | [4] -0.013 | [5] -0.026
